According to publication PMC8593035:
These are yes or no findings as the source states them, for the method shown. Binding seen in cells or lysates may run through a third protein. Some entries that bind do so weakly or less than the wild type.

Sequences of proteins named here, by UniProt entry; tags and fusion partners are left off.
UniProt Q06609: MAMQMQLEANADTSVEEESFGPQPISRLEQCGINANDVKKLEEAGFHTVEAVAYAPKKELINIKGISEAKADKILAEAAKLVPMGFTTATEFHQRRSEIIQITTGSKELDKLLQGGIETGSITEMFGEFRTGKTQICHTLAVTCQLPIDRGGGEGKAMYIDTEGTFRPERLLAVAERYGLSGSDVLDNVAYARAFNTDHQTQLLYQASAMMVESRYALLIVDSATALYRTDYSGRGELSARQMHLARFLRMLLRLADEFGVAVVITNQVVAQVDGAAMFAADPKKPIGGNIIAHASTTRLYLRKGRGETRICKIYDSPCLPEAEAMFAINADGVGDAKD

How the values were obtained:
[1] = biological target: T1, Nucleolar and spindle-associated protein 1 (endogenous) (human (endogenous in CLL cells)) (UniProt Q9BXS6); experiment: co-IP; endogenous proteins; cell lysate in Co-IP lysis buffer, 1–3 ug primary antibody overnight at 4 °C, protein A/G PLUS agarose beads 2 h at 4 °C, washed in PBS 3 times, western blot
T1 sequence: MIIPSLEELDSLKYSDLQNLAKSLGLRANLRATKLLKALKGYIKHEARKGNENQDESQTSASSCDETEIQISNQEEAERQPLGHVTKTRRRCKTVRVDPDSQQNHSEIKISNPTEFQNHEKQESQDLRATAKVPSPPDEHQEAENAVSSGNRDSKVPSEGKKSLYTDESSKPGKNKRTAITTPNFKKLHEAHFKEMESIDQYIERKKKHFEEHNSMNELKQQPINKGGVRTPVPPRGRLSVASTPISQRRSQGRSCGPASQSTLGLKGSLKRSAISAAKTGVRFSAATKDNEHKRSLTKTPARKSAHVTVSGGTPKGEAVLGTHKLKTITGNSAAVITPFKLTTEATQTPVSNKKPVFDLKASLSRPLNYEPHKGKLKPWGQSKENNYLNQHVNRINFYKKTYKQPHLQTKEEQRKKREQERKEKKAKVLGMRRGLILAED

[2] = biological target: T2, NUSAP1, full length (exogenous, from plasmid) (UniProt Q9BXS6); experiment: co-IP; exogenous proteins from co-transfected plasmids; cell lysate in Co-IP lysis buffer, 1–3 ug primary antibody overnight at 4 °C, protein A/G PLUS agarose beads 2 h at 4 °C, washed in PBS 3 times, western blot
T2 sequence: T1 sequence

Row | binding [1] | binding [2] | Substance
1 | binds |  | RAD51 (endogenous) (from UniProt Q06609 1-339)
2 |  | binds | RAD51, full length (exogenous, from plasmid) (from UniProt Q06609 1-339)
